Experimental data: US20110160399A1 (NIHON UNIVERSITY, priority 2008, published 2011)

Experiment: general procedure: Fmoc solid-phase peptide synthesis; β-CLEAR resin; HCTU
Conditions: for conjugation yield: conjugation step

Substance	conjugation yield [%]	step yield (late stage modification step) [%]
4-(8-methoxy-8-oxooctanamido)benzoyl-(PEG) ββImPyPyβImPyγImPyβImIm PyβDp	12	–
4-(8-methoxy-8-oxooctanamido)benzoyl-ββImPyPyγImImPyβDp	19	–
4-(8-methoxy-8-oxooctanamido)benzoyl-ββImPyPyβImPyγImPyβImIm PyβDp	38	–
4-(8-(benzyloxyamino)-8-oxooctanamido)phenylamido-ββPyPyImγImImPyβDp	–	56
4-(8-methoxy-8-oxooctanamido)benzoyl-H2NββPyPyβPyPyPyγImImImβPyImβDp	33	–
